Taken from: PubChem BioAssay AID1259254 (NCATS, 2017)

- Aim: 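Finding genes that stop cells copying their DNA twice in one cycle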 (primary screen)
- Cell system: human HCT116 colorectal cancer cells
- Knock-down reagent: single siRNA against human genes
- Timing: 3 days
- Read-out: 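Nuclei stained with Hoechst and imaged; cell-cycle phase assigned by DNA content; G2 share scaled per plate, non-targeting siRNA 0%, GMNN siRNA 100%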
- Direction: G2 robust z-score: higher = more G2 cells, more excess DNA replication
- Rule for the call: 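An siRNA counts as active if its G2 robust z-score lies at least 5 MADs above the screen median; here such calls match roughly 38% of GMNN control or more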
Here is one part, drawn at random, of about 59,000 deposited reagents. Of all reagents, about 1,550 (2.6%) are marked active. 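G2 share is only a proxy for re-replication; each gene was hit by three separate siRNAs, and active genes were retested.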 Reagents against one gene are numbered here. Not all columns of the deposit are shown. Reagent sequences are not shown. Not given: the amount of reagent.

For KIR2DL4 #1, the entry reads G2 robust z-score -0.438; inactive.
Silencing of KIR2DL4 #2 resulted in: G2 robust z-score -1.42; inactive.
With knock-down of KIR2DL4 #3, the record shows G2 robust z-score 4.36; inactive.
Against SFR1 #1 the deposit lists G2 robust z-score 1.91; inactive.
Knock-down of SFR1 #2 resulted in: G2 robust z-score 0.915; inactive.
With knock-down of SFR1 #3, the record shows G2 robust z-score -0.493; inactive.
Silencing of MBD1 #1 came out at: G2 robust z-score -0.772; inactive.
Silencing of MBD1 #2 came out at: G2 robust z-score -1.01; inactive.
MBD1 #3 gave G2 robust z-score -1.23; inactive.
With knock-down of OR1Q1 #1, the screen gave G2 robust z-score 6.51; active.
After knock-down of OR1Q1 #2, the screen gave G2 robust z-score -1.11; inactive.
Depletion of OR1Q1 #3 gave: G2 robust z-score -0.106; inactive.
Against TMEM33 #1, the values are G2 robust z-score 1.55; inactive.
For TMEM33 #2 the deposit lists G2 robust z-score 0.385; inactive.
With knock-down of TMEM33 #3, the screen gave G2 robust z-score -0.0538; inactive.
CKMT2 #1 showed G2 robust z-score -0.263; inactive.
CKMT2 #2 showed G2 robust z-score -1.7; inactive.
After knock-down of CKMT2 #3 the results were G2 robust z-score 0.0389; inactive.

Copied from the list.
Under “G2 robust z-score”, SFR1 #2 is entered as 0.915
Result of TMEM33 #1 under “Outcome”: inactive
